Measurements published in PMC9917560, “Design, Synthesis and Antimicrobial Evaluation of New N-(1-Hydroxy-1,3-dihydrobenzo[c][1,2]oxaborol-6-yl)(hetero)aryl-2-carboxamides as Potential Inhibitors of Mycobacterial Leucyl-tRNA Synthetase” (International Journal of Molecular Sciences, 2023).
In brackets after ≈: the same amount, converted by molar mass.

Columns and labels:
Assay in all cases: Antibacterial microdilution broth (EUCAST)
Format in all cases: cell-based
[1] = test system: Klebsiella pneumoniae CCM 4415 (ATCC 10031); settings: K. pneumoniae CCM 4415, 95% growth inhibition, 24 h, read-out: MIC (spectrophotometric detection, 530 nm)
[2] = test system: Staphylococcus aureus subsp. aureus CCM 4223 (ATCC 29213); settings: S. aureus CCM 4223, 95% growth inhibition, 24 h, read-out: MIC (spectrophotometric detection, 530 nm)
[3] = test system: Pseudomonas aeruginosa CCM 3955 (ATCC 27853); settings: P. aeruginosa CCM 3955, 24 h, read-out: MIC (visual detection)
[4] = test system: Staphylococcus epidermidis CCM 4418 (ATCC 12228); settings: S. epidermidis CCM 4418, 95% growth inhibition, 24 h, read-out: MIC (spectrophotometric detection, 530 nm)

Compound `O=C(O)c1cn(C2CC2)c2cc(N3CCNCC3)c(F)cc2c1=O` [CIP, ciprofloxacin, reference compound] has an MIC [1] of 0.193 µM (≈ 0.0639 µg/mL), an MIC [2] of 0.773 µM (≈ 0.256 µg/mL) and an MIC [3] of 0.773 µM (≈ 0.256 µg/mL). For the same compound, the MIC [4] was 0.773 µM (≈ 0.256 µg/mL).
